In publication PMC10853778 (Nucleic Acids Research, 2022):
No constants are given. Whether binding was seen depends on the method and setting.

Target: T1, RTEL1 harmonin homology domain 2 (residues 1056-1140) (human) (UniProt Q9NZ71)
T1 sequence: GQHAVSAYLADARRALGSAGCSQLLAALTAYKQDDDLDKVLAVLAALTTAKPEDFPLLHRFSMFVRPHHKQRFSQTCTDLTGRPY
Assay: NMR titration; 15N-labelled partner titrated with unlabelled partner; 1H-15N HSQC, 25°C, 20 mM Tris-HCl pH 7.4, 50 mM NaCl, 2 mM DTT, 0.02% NaN3; Kd and Koff from TITAN 2D lineshape analysis, two-state model; both purified

B1: RTEL1 harmonin homology domain 1 (residues 886-978) (domain or fragment, UniProt Q9NZ71-6 886-978)
chain: EPVAGAQTDRAKLFMVAVKQELSQANFATFTQALQDYKGSDDFAALAACLGPLFAEDPKKHNLLQGFYQFVRPHHKQQFEEVCIQLTGRGCGY
  binding: no binding
